Data: PubChem BioAssay AID1794844 (National Center for Advancing Translational Sciences (NCATS), 2023)
The campaign covered roughly 2,800 compounds. Fewer than 10 were called active. Roughly 7% stayed inconclusive and do not appear here. Calls follow the shape of the dose curve; as a rule, active = well fitted inhibition curve with a large enough effect; inconclusive = small, poorly fitted or top-dose-only effect; inactive = no such curve, though single readings can be large or run the other way. The list shows a part of the results.

By UniProt entry, the sequences of proteins in these tests, tags left out. Where a name states a change or a piece, a line headed by the entry shows the natural chain unless it says otherwise.
UniProt C7C422: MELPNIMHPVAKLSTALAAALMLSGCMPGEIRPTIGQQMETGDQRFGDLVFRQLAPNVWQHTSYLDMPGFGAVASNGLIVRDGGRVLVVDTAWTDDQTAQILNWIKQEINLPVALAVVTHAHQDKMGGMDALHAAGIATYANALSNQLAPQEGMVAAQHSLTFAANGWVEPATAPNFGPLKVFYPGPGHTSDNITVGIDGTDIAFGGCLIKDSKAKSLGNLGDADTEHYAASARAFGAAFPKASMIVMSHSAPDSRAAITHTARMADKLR

Molecular target: Metallo-beta-lactamase type 2 (Klebsiella pneumoniae) (UniProt C7C422)
Assay: qHTS to identify inhibitors of the New Delhi Metallo-beta-lactamase (NDM): Nitrocefin screen against the machine-based learning selections. Also: % of control where 0% means no effect.
Settings: NDM-1 enzyme, nitrocefin hydrolysis, absorbance 485 nm; activity, negative = inhibition: at the top concentration
How it was run: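 Hydrolysis by 2 nM NDM-1 was followed by absorbance after >30 min compound preincubation in HEPES pH 7.0 buffer with 1 uM Zn2SO4. For nitrocefin (16.7 uM, 15 min, 485 nm) and meropenem (50 uM, 30 min, 300 nm), each substrate ran on separate plates.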

SMILES | activity, negative = inhibition
NC(=O)Cc1c[nH]c2ncc(-c3ccc(F)cc3)cc12 | inactive: 31.9% [at 76.7 µM]
COC[C@H]1C[C@@H](NS(C)(=O)=O)[C@H](O)[C@@H]1O | inactive: -5.51% [at 76.7 µM]
FC(F)(F)c1ccc(N2CCC(N[C@@H]3C[C@@H]4OCC[C@@H]43)CC2)nc1 | inactive: -13.7%
O=C(NC[C@H]1OC[C@@H](NCc2ccccc2)[C@@H]1O)c1ccccc1 | inactive: -3.95% [at 57.5 µM]
O=C(c1ccc(CNc2nccc(-c3cccnc3)n2)cc1)N1CCCCC1 | inactive: -3.79%
COc1ccc(CC(=O)Nc2ccc([C@H]3OCC(=O)N(Cc4scnc4C)[C@@H]3CO)cc2)cc1 | inactive: -6.82%
O=C(O)C[C@@H]1CCN(S(=O)(=O)c2ccccc2)C[C@@H]1CCN(CCN1CCOCC1)c1ccccc1 | inactive: -10.4%
CCNC(=O)O[C@@H]1CO[C@H]2[C@@H]1OC[C@@H]2NC(=O)c1ccccn1 | inactive: 27.2% [at 57.5 µM]
CC1=C[C@@H](CNC2CCOCC2)[C@H](C(C)C)C[C@H]1Cc1nc2ccc(Cl)cc2[nH]1 | inactive: 4.72% [at 57.5 µM]
COCCNc1cc(-c2noc([C@@H]3CCCN3Cc3ccccn3)n2)ccn1 | inactive: 4.64% [at 57.5 µM]
COCC1(CNCc2ccc(F)cc2)C[C@@H](O)[C@@H](O)C1 (some centres undefined) | inactive: -7.25% [at 76.7 µM]
COc1ccc(C(=O)Nc2ccc([C@H]3OCC(=O)N(Cc4cccnc4)[C@@H]3CO)cc2)cc1 | inactive: 1.83%
COCc1cn([C@H]2CO[C@H]3[C@@H]2OC[C@H]3OC(=O)Nc2cccc(C(F)(F)F)c2)nn1 | inactive: 11.4% [at 57.5 µM]
O=C(O)C[C@@H]1CCN(C(=O)c2cccs2)C[C@@H]1CCN1CCN(c2cccc(C(F)(F)F)c2)CC1 | inactive: -12.2%
CCn1ccc(C(=O)N2CCCC(c3nn(C)c(=O)n3-c3ccccc3)C2)n1 (centres undefined) | inactive: 8.71%
NC(=O)Cc1c[nH]c2ncc(-c3cccc(N4CCOCC4)c3)cc12 | inactive: -5.99% [at 57.5 µM]
C=CCc1cc(C2CC(=O)Nc3[nH]ncc32)cc(OCC)c1OC (centres undefined) | inactive: -0.216%
O=C(Nc1ccccc1)c1cnc2c(c1)N(C(=O)Cc1ccc(O)cc1)CCC2 | inactive: -7.38% [at 57.5 µM]
O=C(Cc1c[nH]c2ncc(-c3ccccc3)cc12)NCc1ccncc1 | inactive: 12.5% [at 57.5 µM]
O=C(N[C@H]1CCN2C(=O)c3cc(-c4ccsc4)ccc3NC(=O)[C@H]12)c1cccc(F)c1 | inactive: -12.2%
COc1ccc(OC)c(S(=O)(=O)N2C[C@@H](F)C[C@H]2C(=O)N2CCc3ccccc3C2)c1 | inactive: -4.55%
CSc1cccc(NC(=O)N(C)CC2CCOCC2)c1 | inactive: 0.601%
CCOc1cc(=O)n2c(c1C(=O)N1CCN(c3ccc(F)cc3)CC1)CCCC2 | inactive: 3.65%
COCCNc1ncc(-c2cccc(N[S+](C)(=O)[O-])c2)c2c1OCC2 | inactive: 3.64% [at 57.5 µM]
COC[C@H]1CCCN1Cc1nc(C2(O)CCN(C3CCC3)CC2)cs1 | inactive: -3.4% [at 57.5 µM]

SMILES | activity, negative = inhibition
CC[C@H]1CN(C(=O)Nc2cccc(C(F)(F)F)c2)CC[C@H]1CC(=O)Nc1ccccc1 | inactive: 6.38% [at 57.5 µM]
COc1ccc(-c2cnc3[nH]cc(CC(=O)Nc4cccnc4)c3c2)cc1 | inactive: 28.1% [at 57.5 µM]
Oc1ccccc1CN1CCC(O)(c2csc(CN3CCc4ccccc4C3)n2)CC1 | inactive: 0.811%
Cc1cc(F)ccc1OC1CN(Cc2ccc(F)cc2)C1 | inactive: -4.35% [at 57.5 µM]
Cc1c(C(=O)N2CCCn3nc(C(C)O)cc3C2)sc2nc[nH]c(=O)c12 (centres undefined) | inactive: -5.04%
CC(=O)N1CCC(N2CCOC[C@H]2c2ncc(-c3ccncc3)[nH]2)CC1 | inactive: -1.2% [at 57.5 µM]
O=C1NCC(c2ccc(Cl)cc2)Cc2[nH]c(-c3ccc(O)cc3)nc21 (centres undefined) | inactive: 0.0693%
O=C(O)c1ccccc1C(=O)N[C@H]1CO[C@H]2[C@@H]1OC[C@@H]2n1nnnc1-c1ccc2c(c1)OCO2 | inactive: 0.0904%
c1ccc(-c2nnc3ccc(NC4CCC4)nn23)nc1 | inactive: 2.76% [at 76.7 µM]
O=C(O)C1(CCc2ccccc2)CCCN(c2ncnc3nc[nH]c23)C1 (centres undefined) | inactive: -19.3%
O=C(NCCc1ccccn1)C1CCCN(c2nc(-c3ccccc3)nc3c2CCC3)C1 (centres undefined) | inactive: 5.53%
COc1ccc(CN2CCOc3ccc(C(=O)NCc4ccc(C)cc4)cc3C2)c(OC)c1 | inactive: -0.698%
COc1ccc(NC(=O)N[C@H]2CO[C@H]3[C@@H]2OC[C@H]3OC(=O)Nc2ccc(OC)cc2)cc1 | inactive: 54.1%
COc1ccc(CC2(CO)CCN(c3nccc(N)n3)CC2)cc1 | inactive: -0.629%
C=CCC(=O)N1CCCC1C(=O)Nc1ccc(-c2cccc(OC)c2)cc1 (centres undefined) | inactive: 0.991%
N#Cc1cccc(CN2CCC(C3=NC(O)c4cc(F)ccc4N3)CC2)c1 (centres undefined) | inactive: 7.06%
NC(=O)Cc1c[nH]c2ncc(-c3ccccc3Oc3ccccc3)cc12 | inactive: -0.38% [at 57.5 µM]
CCNC(=O)[C@@H]1C[C@H](NC(=O)c2ccccc2)CN1Cc1scnc1C | inactive: -0.216%
Cc1ccc(S(=O)(=O)N2C[C@@H](C(N)=O)[C@H](C3CCN(C)CC3)C2)cc1Cl | inactive: -2.75%
CC(C)Oc1ccc(C(=O)N2CCC3(CC2)C(=O)N(C)c2ccccc23)cc1 | inactive: -6.69%
c1ccc(-c2nnc3ccc(NCc4cccs4)nn23)nc1 | inactive: 7.53% [at 57.5 µM]
OCC1CN(c2ccncn2)CC12CCN(Cc1c[nH]c3ccccc13)CC2 (centres undefined) | inactive: 2.83%
COc1ccccc1Nc1ncc2c(n1)CN(C(=O)c1cccc(O)c1)CCN2 | inactive: -3.99% [at 57.5 µM]
CC(NC(=O)OCc1ccccc1)c1nc2cccnc2n1C1CCCCC1 (centres undefined) | inactive: -3.68%

3 entries out of the list, arranged by molar mass, rising:
SMILES | activity, negative = inhibition
Cc1cc(F)ccc1OC1CN(Cc2ccc(F)cc2)C1 | inactive: -4.35% [at 57.5 µM]
CC(=O)N1CCC(N2CCOC[C@H]2c2ncc(-c3ccncc3)[nH]2)CC1 | inactive: -1.2% [at 57.5 µM]
C=CCC(=O)N1CCCC1C(=O)Nc1ccc(-c2cccc(OC)c2)cc1 (centres undefined) | inactive: 0.991%
